These are yes or no findings as the source states them, for the method shown. In cells and extracts the contact can be indirect. A yes stands for co-enrichment or nearness to the bait. Other partners may have been found.
B1: THRAP3 (protein, UniProt Q9Y2W1 1-955)
chain: MSKTNKSKSGSRSSRSRSASRSRSRSFSKSRSRSRSLSRSRKRRLSSRSRSRSYSPAHNRERNHPRVYQNRDFRGHNRGYRRPYYFRGRNRGFYPWGQYNRGGYGNYRSNWQNYRQAYSPRRGRSRSRSPKRRSPSPRSRSHSRNSDKSSSDRSRRSSSSRSSSNHSRVESSKRKSAKEKKSSSKDSRPSQAAGDNQGDEAKEQTFSGGTSQDTKASESSKPWPDATYGTGSASRASAVSELSPRERSPALKSPLQSVVVRRRSPRPSPVPKPSPPLSSTSQMGSTLPSGAGYQSGTHQGQFDHGSGSLSPSKKSPVGKSPPSTGSTYGSSQKEESAASGGAAYTKRYLEEQKTENGKDKEQKQTNTDKEKIKEKGSFSDTGLGDGKMKSDSFAPKTDSEKPFRGSQSPKRYKLRDDFEKKMADFHKEEMDDQDKDKAKGRKESEFDDEPKFMSKVIGANKNQEEEKSGKWEGLVYAPPGKEKQRKTEELEEESFPERSKKEDRGKRSEGGHRGFVPEKNFRVTAYKAVQEKSSSPPPRKTSESRDKLGAKGDFPTGKSSFSITREAQVNVRMDSFDEDLARPSGLLAQERKLCRDLVHSNKKEQEFRSIFQHIQSAQSQRSPSELFAQHIVTIVHHVKEHHFGSSGMTLHERFTKYLKRGTEQEAAKNKKSPEIHRRIDISPSTFRKHGLAHDEMKSPREPGYKAEGKYKDDPVDLRLDIERRKKHKERDLKRGKSRESVDSRDSSHSRERSAEKTEKTHKGSKKQKKHRRARDRSRSSSSSSQSSHSYKAEEYTEETEEREESTTGFDKSRLGTKDFVGPSERGGGRARGTFQFRARGRGWGRGNYSGNNNNNSNNDFQKRNREEEWDPEYTPKSKKYYLHDDREGEGSDKWVSRGRGRGAFPRGRGRFMFRKSSTSPKWAHDKFSGEEGEIEDDESGTENREEKDNIQPTTE
B2: DARS2 (protein, UniProt Q6PI48 48-645)
chain: VVRTNTCGELRSSHLGQEVTLCGWIQYRRQNTFLVLRDFDGLVQVIIPQDESAASVKKILCEAPVESVVQVSGTVISRPAGQENPKMPTGEIEIKVKTAELLNACKKLPFEIKNFVKKTEALRLQYRYLDLRSFQMQYNLRLRSQMVMKMREYLCNLHGFVDIETPTLFKRTPGGAKEFLVPSREPGKFYSLPQSPQQFKQLLMVGGLDRYFQVARCYRDEGSRPDRQPEFTQIDIEMSFVDQTGIQSLIEGLLQYSWPNDKDPVVVPFPTMTFAEVLATYGTDKPDTRFGMKIIDISDVFRNTEIGFLQDALSKPHGTVKAICIPEGAKYLKRKDIESIRNFAADHFNQEILPVFLNANRNWNSPVANFIMESQRLELIRLMETQEEDVVLLTAGEHNKACSLLGKLRLECADLLETRGVVLRDPTLFSFLWVVDFPLFLPKEENPRELESAHHPFTAPHPSDIHLLYTEPKKARSQHYDLVLNGNEIGGGSIRIHNAELQRYILATLLKEDVKMLSHLLQALDYGAPPHGGIALGLDRLICLVTGSPSIRDVIAFPKSFRGHDLMSNTPDSVPPEELKPYHIRVSKPTDSKAERAH
B3: DCAF7 (protein, UniProt P61962 1-342)
chain: MSLHGKRKEIYKYEAPWTVYAMNWSVRPDKRFRLALGSFVEEYNNKVQLVGLDEESSEFICRNTFDHPYPTTKLMWIPDTKGVYPDLLATSGDYLRVWRVGETETRLECLLNNNKNSDFCAPLTSFDWNEVDPYLLGTSSIDTTCTIWGLETGQVLGRVNLVSGHVKTQLIAHDKEVYDIAFSRAGGGRDMFASVGADGSVRMFDLRHLEHSTIIYEDPQHHPLLRLCWNKQDPNYLATMAMDGMEVVILDVRVPCTPVARLNNHRACVNGIAWAPHSSCHICTAADDHQALIWDIQQMPRAIEDPILAYTAEGEINNVQWASTQPDWIAICYNNCLEILRV
B4: DDX27 (protein, UniProt Q96GQ7 1-765)
chain: MLADLGLIGTIGEDDEVPVEPESDSGDEEEEGPIVLGRRQKALGKNRSADFNPDFVFTEKEGTYDGSWALADVMSQLKKKRAATTLDEKIEKVRKKRKTEDKEAKSGKLEKEKEAKEGSEPKEQEDLQENDEEGSEDEASETDYSSADENILTKADTLKVKDRKKKKKKGQEAGGFFEDASQYDENLSFQDMNLSRPLLKAITAMGFKQPTPIQKACIPVGLLGKDICACAATGTGKTAAFALPVLERLIYKPRQAPVTRVLVLVPTRELGIQVHSVTRQLAQFCNITTCLAVGGLDVKSQEAALRAAPDILIATPGRLIDHLHNCPSFHLSSIEVLILDEADRMLDEYFEEQMKEIIRMCSHHRQTMLFSATMTDEVKDLASVSLKNPVRIFVNSNTDVAPFLRQEFIRIRPNREGDREAIVAALLTRTFTDHVMLFTQTKKQAHRMHILLGLMGLQVGELHGNLSQTQRLEALRRFKDEQIDILVATDVAARGLDIEGVKTVINFTMPNTIKHYVHRVGRTARAGRAGRSVSLVGEDERKMLKEIVKAAKAPVKARILPQDVILKFRDKIEKMEKDVYAVLQLEAEEKEMQQSEAQINTAKRLLEKGKEAVVQEPERSWFQTKEERKKEKIAKALQEFDLALRGKKKRKKFMKDAKKKGEMTAEERSQFEILKAQMFAERLAKRNRRAKRARAMPEEEPVRGPAKKQKQGKKSVFDEELTNTSKKALKQYRAGPSFEERKQLGLPHQRRGGNFKSKSRYKRRK
B5: DDX46 (protein, UniProt Q7L014 1-1031)
chain: MGRESRHYRKRSASRGRSGSRSRSRSPSDKRSKRGDDRRSRSRDRDRRRERSRSRDKRRSRSRDRKRLRRSRSRERDRSRERRRSRSRDRRRSRSRSRGRRSRSSSPGNKSKKTENRSRSKEKTDGGESSKEKKKDKDDKEDEKEKDAGNFDQNKLEEEMRKRKERVEKWREEQRKKAMENIGELKKEIEEMKQGKKWSLEDDDDDEDDPAEAEKEGNEMEGEELDPLDAYMEEVKEEVKKFNMRSVKGGGGNEKKSGPTVTKVVTVVTTKKAVVDSDKKKGELMENDQDAMEYSSEEEEVDLQTALTGYQTKQRKLLEPVDHGKIEYEPFRKNFYVEVPELAKMSQEEVNVFRLEMEGITVKGKGCPKPIKSWVQCGISMKILNSLKKHGYEKPTPIQTQAIPAIMSGRDLIGIAKTGSGKTIAFLLPMFRHIMDQRSLEEGEGPIAVIMTPTRELALQITKECKKFSKTLGLRVVCVYGGTGISEQIAELKRGAEIIVCTPGRMIDMLAANSGRVTNLRRVTYVVLDEADRMFDMGFEPQVMRIVDNVRPDRQTVMFSATFPRAMEALARRILSKPIEVQVGGRSVVCSDVEQQVIVIEEEKKFLKLLELLGHYQESGSVIIFVDKQEHADGLLKDLMRASYPCMSLHGGIDQYDRDSIINDFKNGTCKLLVATSVAARGLDVKHLILVVNYSCPNHYEDYVHRAGRTGRAGNKGYAYTFITEDQARYAGDIIKALELSGTAVPPDLEKLWSDFKDQQKAEGKIIKKSSGFSGKGFKFDETEQALANERKKLQKAALGLQDSDDEDAAVDIDEQIESMFNSKKRVKDMAAPGTSSVPAPTAGNAEKLEIAKRLALRINAQKNLGIESQDVMQQATNAILRGGTILAPTVSAKTIAEQLAEKINAKLNYVPLEKQEEERQDGGQNESFKRYEEELEINDFPQTARWKVTSKEALQRISEYSEAAITIRGTYFPPGKEPKEGERKIYLAIESANELAVQKAKAEITRLIKEELIRLQNSYQPTNKGRYKVL
B6: DDX56 (protein, UniProt Q9NY93 1-547)
chain: MEDSEALGFEHMGLDPRLLQAVTDLGWSRPTLIQEKAIPLALEGKDLLARARTGSGKTAAYAIPMLQLLLHRKATGPVVEQAVRGLVLVPTKELARQAQSMIQQLATYCARDVRVANVSAAEDSVSQRAVLMEKPDVVVGTPSRILSHLQQDSLKLRDSLELLVVDEADLLFSFGFEEELKSLLCHLPRIYQAFLMSATFNEDVQALKELILHNPVTLKLQESQLPGPDQLQQFQVVCETEEDKFLLLYALLKLSLIRGKSLLFVNTLERSYRLRLFLEQFSIPTCVLNGELPLRSRCHIISQFNQGFYDCVIATDAEVLGAPVKGKRRGRGPKGDKASDPEAGVARGIDFHHVSAVLNFDLPPTPEAYIHRAGRTARANNPGIVLTFVLPTEQFHLGKIEELLSGENRGPILLPYQFRMEEIEGFRYRCRDAMRSVTKQAIREARLKEIKEELLHSEKLKTYFEDNPRDLQLLRHDLPLHPAVVKPHLGHVPDYLVPPALRGLVRPHKKRKKLSSSCRKAKRAKSQNPLRSFKHKGKKFRPTAKPS
B7: DHX29 (protein, UniProt Q7Z478 1-1369)
chain: MGGKNKKHKAPAAAVVRAAVSASRAKSAEAGIAGEAQSKKPVSRPATAAAAAAGSREPRVKQGPKIYSFNSTNDSSGPANLDKSILKVVINNKLEQRIIGVINEHKKQNNDKGMISGRLTAKKLQDLYMALQAFSFKTKDIEDAMTNTLLYGGDLHSALDWLCLNLSDDALPEGFSQEFEEQQPKSRPKFQSPQIQATISPPLQPKTKTYEEDPKSKPKKEEKNMEVNMKEWILRYAEQQNEEEKNENSKSLEEEEKFDPNERYLHLAAKLLDAKEQAATFKLEKNKQGQKEAQEKIRKFQREMETLEDHPVFNPAMKISHQQNERKKPPVATEGESALNFNLFEKSAAATEEEKDKKKEPHDVRNFDYTARSWTGKSPKQFLIDWVRKNLPKSPNPSFEKVPVGRYWKCRVRVIKSEDDVLVVCPTILTEDGMQAQHLGATLALYRLVKGQSVHQLLPPTYRDVWLEWSDAEKKREELNKMETNKPRDLFIAKLLNKLKQQQQQQQQHSENKRENSEDPEESWENLVSDEDFSALSLESANVEDLEPVRNLFRKLQSTPKYQKLLKERQQLPVFKHRDSIVETLKRHRVVVVAGETGSGKSTQVPHFLLEDLLLNEWEASKCNIVCTQPRRISAVSLANRVCDELGCENGPGGRNSLCGYQIRMESRACESTRLLYCTTGVLLRKLQEDGLLSNVSHVIVDEVHERSVQSDFLLIILKEILQKRSDLHLILMSATVDSEKFSTYFTHCPILRISGRSYPVEVFHLEDIIEETGFVLEKDSEYCQKFLEEEEEVTINVTSKAGGIKKYQEYIPVQTGAHADLNPFYQKYSSRTQHAILYMNPHKINLDLILELLAYLDKSPQFRNIEGAVLIFLPGLAHIQQLYDLLSNDRRFYSERYKVIALHSILSTQDQAAAFTLPPPGVRKIVLATNIAETGITIPDVVFVIDTGRTKENKYHESSQMSSLVETFVSKASALQRQGRAGRVRDGFCFRMYTRERFEGFMDYSVPEILRVPLEELCLHIMKCNLGSPEDFLSKALDPPQLQVISNAMNLLRKIGACELNEPKLTPLGQHLAALPVNVKIGKMLIFGAIFGCLDPVATLAAVMTEKSPFTTPIGRKDEADLAKSALAMADSDHLTIYNAYLGWKKARQEGGYRSEITYCRRNFLNRTSLLTLEDVKQELIKLVKAAGFSSSTTSTSWEGNRASQTLSFQEIALLKAVLVAGLYDNVGKIIYTKSVDVTEKLACIVETAQGKAQVHPSSVNRDLQTHGWLLYQEKIRYARVYLRETTLITPFPVLLFGGDIEVQHRERLLSIDGWIYFQAPVKIAVIFKQLRVLIDSVLRKKLENPKMSLENDKILQIITELIKTENN

Target: T1, CLN7 (human (endogenous in SH-SY5Y)) (UniProt Q8NHS3)
T1 sequence: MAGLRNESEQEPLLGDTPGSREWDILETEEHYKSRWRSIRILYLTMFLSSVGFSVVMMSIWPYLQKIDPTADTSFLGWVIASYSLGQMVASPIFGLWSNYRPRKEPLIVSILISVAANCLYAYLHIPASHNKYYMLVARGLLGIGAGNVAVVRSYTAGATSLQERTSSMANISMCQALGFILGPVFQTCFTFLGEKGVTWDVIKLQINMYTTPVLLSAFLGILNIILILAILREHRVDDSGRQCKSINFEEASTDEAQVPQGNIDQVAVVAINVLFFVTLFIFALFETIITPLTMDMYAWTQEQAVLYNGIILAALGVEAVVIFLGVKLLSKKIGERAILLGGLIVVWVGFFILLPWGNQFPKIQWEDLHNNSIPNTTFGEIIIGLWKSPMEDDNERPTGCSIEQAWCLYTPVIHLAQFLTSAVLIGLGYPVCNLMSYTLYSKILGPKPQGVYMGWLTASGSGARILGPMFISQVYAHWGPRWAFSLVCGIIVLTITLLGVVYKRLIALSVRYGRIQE
Assay: affinity purification with mass spectrometry; endogenous CLN7 immunoprecipitated from 2.5 mg SH-SY5Y lysate with a polyclonal anti-CLN7 antibody raised against L9 (351-421aa, Proteintech) on G-sepharose beads; IgG as non-specific binding control; 4 independent replicates; cells under steady state culture conditions

binding	Binder
binds	B1
binds	B2
binds	B3
binds	B4
binds	B5
binds	B6
binds	B7

Reference: PMC12579238
